Reference: PubChem BioAssay AID1224828 (NIAID, 2016)
The whole screen tested about 17,000 reagents; shown is a random part of them. Of all reagents, 762 (4.5%) are marked active. 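Active calls include both raised and lowered p65 entry, mostly lowered; wells with fewer than 50 cells lack a z-score.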 The raw values are shown without normalisation. Unmarked entries are inactive. Reagents against one gene are numbered here.

Test: 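Regulators linking TLR4 signalling to p65 nuclear translocation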 (primary screen)
Cells: mouse RAW264.7 G9 macrophage reporter cells (GFP-p65, Tnf promoter-mCherry)
Knock-down reagent: siRNA pool against mouse genes, 100 nM
Time to read-out: 2 days siRNA transfection, then 40 min LPS before fixation
Conditions: LPS (Salmonella minnesota R595) at 10 ng/ml
Read-out: 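Imaged p65 nuclear translocation ratio, normalised to the plate median, converted to robust z-scores and averaged across two replicates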
Direction: p65 translocation robust z-score: higher = more nuclear NF-kappaB p65 after LPS than the plate median; nuclear/cytoplasmic p65 ratio: higher = more nuclear NF-kappaB p65
Hit rule: 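Called active when z exceeds 3.3 or falls under -1.56 (median of Tlr4 controls), giving activity score of at least 50; no calls for control wells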
Meaning of the calls: active = hit (p65 shift raised or lowered); inactive = no clear change

With knock-down of Nkain1 (Na+/K+ transporting ATPase interacting 1), the record shows nuclear/cytoplasmic p65 ratio, rep 1 = 1.33; nuclear/cytoplasmic p65 ratio, rep 2 = 1.43; low cell count flag fewer than 50 cells per well; well left out of scoring. After knock-down of Cobll1 (Cobl-like 1), the screen gave p65 translocation robust z-score -0.26; nuclear/cytoplasmic p65 ratio, rep 1 = 1.53; nuclear/cytoplasmic p65 ratio, rep 2 = 1.76; low cell count flag enough cells to score. Against Pisd (phosphatidylserine decarboxylase) the deposit lists p65 translocation robust z-score -0.63; nuclear/cytoplasmic p65 ratio, rep 1 = 1.33; nuclear/cytoplasmic p65 ratio, rep 2 = 1.47; low cell count flag enough cells to score. Knock-down of Lrwd1 (leucine-rich repeats and WD repeat domain containing 1) resulted in: p65 translocation robust z-score 0.41; nuclear/cytoplasmic p65 ratio, rep 1 = 1.41; nuclear/cytoplasmic p65 ratio, rep 2 = 1.47; low cell count flag enough cells to score. Knock-down of Arsb (arylsulfatase B) #1 came out at: p65 translocation robust z-score -0.1; nuclear/cytoplasmic p65 ratio, rep 1 = 1.59; nuclear/cytoplasmic p65 ratio, rep 2 = 1.61; low cell count flag enough cells to score. For Arsb (arylsulfatase B) #2, the values are p65 translocation robust z-score -0.86; nuclear/cytoplasmic p65 ratio, rep 1 = 1.36; nuclear/cytoplasmic p65 ratio, rep 2 = 1.39; low cell count flag enough cells to score.

Depletion of Srfbp1 (serum response factor binding protein 1) gave: p65 translocation robust z-score 0.05; nuclear/cytoplasmic p65 ratio, rep 1 = 1.36; nuclear/cytoplasmic p65 ratio, rep 2 = 1.51; low cell count flag enough cells to score. With knock-down of Ctf1 (cardiotrophin 1), the screen gave nuclear/cytoplasmic p65 ratio, rep 1 = 1.12; nuclear/cytoplasmic p65 ratio, rep 2 = 1.12; low cell count flag fewer than 50 cells per well; well left out of scoring. With knock-down of Or14j10 (olfactory receptor family 14 subfamily J member 10), the screen gave p65 translocation robust z-score 0.38; nuclear/cytoplasmic p65 ratio, rep 1 = 1.82; nuclear/cytoplasmic p65 ratio, rep 2 = 1.55; low cell count flag enough cells to score. Knock-down of Glt28d2 (glycosyltransferase 28 domain containing 2) resulted in: nuclear/cytoplasmic p65 ratio, rep 1 = 1.14; nuclear/cytoplasmic p65 ratio, rep 2 = 1.23; low cell count flag fewer than 50 cells per well; well left out of scoring. Acsl6 (acyl-CoA synthetase long-chain family member 6) showed p65 translocation robust z-score 1.68; nuclear/cytoplasmic p65 ratio, rep 1 = 1.87; nuclear/cytoplasmic p65 ratio, rep 2 = 1.88; low cell count flag enough cells to score. Knock-down of Hexb (hexosaminidase B) resulted in: p65 translocation robust z-score -1.54; nuclear/cytoplasmic p65 ratio, rep 1 = 1.21; nuclear/cytoplasmic p65 ratio, rep 2 = 1.2; low cell count flag enough cells to score.
